Experimental findings from US8039456B2, “Method of stimulating the motility of the gastrointestinal system using ipamorelin” (Helsinn Therapeutics (U.S.), Inc., priority 2004, dated 2011) are described below.

The assay relates to morphine-induced slowing of gastric emptying. The settings on record: morphine 0.05 mg/kg IV, healthy male volunteers.

In the case of `CN1CC[C@]23c4c5ccc(O)c4O[C@H]2[C@@H](O)C=C[C@H]3[C@H]1C5` [morphine], the “gastric emptying as determined by plasma acetaminophen levels” value is “delayed gastric emptying”.
